Results as given in doi:10.1101/2020.12.28.423414.
No constants are given. Whether binding was seen depends on the method and setting. Binding seen in cells or lysates may run through a third protein. These calls come from enrichment with a bait or labelling near it, and not all partners need be listed.

Protein sequences, listed by entry. Tags and fused reporters are not part of them.
UniProt Q9FIJ0: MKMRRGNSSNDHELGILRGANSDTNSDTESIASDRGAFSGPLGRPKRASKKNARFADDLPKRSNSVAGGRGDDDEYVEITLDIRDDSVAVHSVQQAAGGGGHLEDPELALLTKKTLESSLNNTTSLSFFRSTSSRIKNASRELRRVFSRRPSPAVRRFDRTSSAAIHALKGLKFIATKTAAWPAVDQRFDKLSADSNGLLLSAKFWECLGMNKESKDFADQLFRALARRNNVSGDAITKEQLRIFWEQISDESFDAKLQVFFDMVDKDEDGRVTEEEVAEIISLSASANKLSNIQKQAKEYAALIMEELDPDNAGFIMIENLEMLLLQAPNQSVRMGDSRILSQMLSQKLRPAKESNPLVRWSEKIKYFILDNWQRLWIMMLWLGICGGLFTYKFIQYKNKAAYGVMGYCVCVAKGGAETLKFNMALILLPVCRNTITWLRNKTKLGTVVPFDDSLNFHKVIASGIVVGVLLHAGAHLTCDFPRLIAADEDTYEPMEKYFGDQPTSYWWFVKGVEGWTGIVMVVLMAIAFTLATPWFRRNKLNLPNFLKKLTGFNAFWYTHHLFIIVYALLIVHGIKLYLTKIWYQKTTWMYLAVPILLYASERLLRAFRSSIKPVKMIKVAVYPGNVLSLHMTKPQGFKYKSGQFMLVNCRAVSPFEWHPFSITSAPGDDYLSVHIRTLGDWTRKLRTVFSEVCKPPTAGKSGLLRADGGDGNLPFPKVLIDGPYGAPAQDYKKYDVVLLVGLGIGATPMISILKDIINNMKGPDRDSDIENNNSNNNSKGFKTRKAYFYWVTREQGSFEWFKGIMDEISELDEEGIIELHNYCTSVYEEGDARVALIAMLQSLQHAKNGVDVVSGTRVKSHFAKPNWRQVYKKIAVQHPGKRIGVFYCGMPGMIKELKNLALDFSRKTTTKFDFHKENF

Molecular target: 3×FLAG-tagged RBOHD (RESPIRATORY BURST OXIDASE HOMOLOG D) (Arabidopsis thaliana) (UniProt Q9FIJ0)
Experiment: affinity purification with mass spectrometry

binding: binds
Substance: 2-oxoglutarate dehydrogenase E1 component (AT3G55410) (from UniProt F4IWV2) (enzyme)
